Measurements reported in patent publication US20240199756A1.
No constants are given. Whether binding was seen depends on the method and setting. Some binding calls cover weakened binding; strength is not graded here.

The chains behind the UniProt entries cited, without tags or fusion partners. Residues count along the entry.
UniProt O76036, residues 22-254: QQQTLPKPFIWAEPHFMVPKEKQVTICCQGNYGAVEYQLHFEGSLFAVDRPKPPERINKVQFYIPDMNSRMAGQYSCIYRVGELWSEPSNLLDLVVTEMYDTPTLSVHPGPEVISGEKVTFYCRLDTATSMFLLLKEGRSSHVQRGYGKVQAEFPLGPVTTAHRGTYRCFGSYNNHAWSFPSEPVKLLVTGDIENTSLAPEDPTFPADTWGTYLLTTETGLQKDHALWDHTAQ

What was measured:
[1] = molecular target: NKp46 as used in the BIAcore assay of Example 1 (human) (UniProt O76036); assay: BIAcore, mAb9 as the injected analyte
[2] = molecular target: NKp46 as used in the BIAcore assay of Example 1 (human) (UniProt O76036); assay: BIAcore, mAb12 as the injected analyte

binding [1] | binding [2] | Binder
binds | – | mouse anti-NKp46 monoclonal antibody 09 (antibody, V domains shown) VH: EVQLQQSGPELVKPGTSVKISCKTSGYTFTEYSMHWVKQSHGKSLEWFGGISPNSGGTSYNQKFKGKATLTVDKSSSTAYMELRSLTSEDSAVYYCARRDFHSSFDYWGQGTTLTVSS VL: DIVMTQSPATLSVTPGDRVSLSCRASQSISDYLHWFQQKSHESPRLLIKYASQSISGIPSRFSGSGSGSDFTLSINSVEPEDVGVYYCQNGHSFPLTFGPGTKLELK
– | binds | mouse anti-NKp46 monoclonal antibody 12 (antibody, V domains shown) VH: EVQLQQSGPELVKPGTSVKISCKTSGYTFTEYSMHWVKQSHGKSLEWFGGISPNSGGTSYNQKFKGKATLTVDKSSSTAYMELRSLTSEDSAVYYCARRDFHSSFDYWGQGTTLTVSS VL: DIVLTQSPATLSVTPGNSVSLSCRASQSISDYLHWFQQKSHESPRLLIKYASQSISGIPSRFSGSGSGSDFTLSINSVEPEDVGVYYCQNGHSFPLTFGPGTKLELK
